Assay results as given in publication PMC11530851.

System: SKIV2L (hSKI complex subunit) + TTC37 (hSKI complex subunit) + WDR61 (hSKI complex subunit)
Assay: EMSA
Conditions: 2 mM Mg2+, 25 mM Hepes-KOH pH 7.6, 2 mM Mg acetate, 50 mM NaCl, 1 mM DTT, 0.1 mg/ml BSA, 1 nM substrate, 37 C 30 min, 0.7% agarose gel at 4 C, recombinant protein
[1] = poor binding, label: 5' 32P on one strand

## ACGTCAGATGATCGATGGGGTTAGGGTTAG / CCCCATCGATCATCTGACGT [3' TEL D:D (LR01 + cLR01_20)]
label: 5' 32P on one strand
  Kd: 6 nM

## ACGUCAGAUGAUCGAUGGGGUUAGGGUUG / CCCCATCGATCATCTGACGT [3' TERRA R:D (LR01 RNA + cLR01_20)]
label: 5' 32P on one strand, DNA:RNA hybrid
  Kd: 25 nM

## ACGUCAGAUGAUCGAUGGGGUUAGGGUUG / CCCCAUCGAUCAUCUGACGU [3' TERRA R:R (LR01 RNA + cLR01_20 RNA)]
label: 5' 32P on one strand
  Kd: 12 nM

## CCCCACCACCAUCACUUACCAUCACUU / AAGUGAUGGUAAGUGAU [5' Non-TERRA R:R (5'ss27 + 5'Css17)]
[1]
  binding result: binds more weakly

## GGTTAGGGTTAGGGTTAGGGTTAGGGTTAG (double strand) [dsDNA (TEL30 + CTEL30)]
label: 5' 32P on one strand
  binding result: no binding

## GGTTAGGGTTAGGGTTAGGGTTAGGGTTAG / CTAACCCTAACCCTAACCCT [5' TEL D:D (TEL30 + 5'CTEL20)]
[1]
  binding result: binds more weakly

## UUAGGGUUAGGGUUAGGGUUAGGGUUAGGG [TERRA]
Lower affinity than TEL18, label: 5' 32P
  binding result: binds more weakly

Construct, isoform or probe ends are uncertain for at least one entry. A negative result means that nothing was seen under these conditions. The comparison behind a weaker result is the experiment's own reference, which may not be listed here.
